Measured values as given in the supplement of paper PMC10849652.
The list shows a part of the results.

Protein sequences, listed by entry. Tags and fused reporters are not part of them. Lines headed by an entry give the natural chain unless they say otherwise; changes in a name come on top.
UniProt Q9Y3S2: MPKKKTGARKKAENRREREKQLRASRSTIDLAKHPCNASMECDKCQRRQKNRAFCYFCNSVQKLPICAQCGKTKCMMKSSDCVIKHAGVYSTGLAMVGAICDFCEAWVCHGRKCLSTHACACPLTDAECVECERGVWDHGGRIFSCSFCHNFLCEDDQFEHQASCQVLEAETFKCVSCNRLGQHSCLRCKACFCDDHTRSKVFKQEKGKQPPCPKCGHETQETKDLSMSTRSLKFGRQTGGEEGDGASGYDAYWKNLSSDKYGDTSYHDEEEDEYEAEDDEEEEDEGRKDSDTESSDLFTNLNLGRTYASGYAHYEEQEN
UniProt Q9UL40: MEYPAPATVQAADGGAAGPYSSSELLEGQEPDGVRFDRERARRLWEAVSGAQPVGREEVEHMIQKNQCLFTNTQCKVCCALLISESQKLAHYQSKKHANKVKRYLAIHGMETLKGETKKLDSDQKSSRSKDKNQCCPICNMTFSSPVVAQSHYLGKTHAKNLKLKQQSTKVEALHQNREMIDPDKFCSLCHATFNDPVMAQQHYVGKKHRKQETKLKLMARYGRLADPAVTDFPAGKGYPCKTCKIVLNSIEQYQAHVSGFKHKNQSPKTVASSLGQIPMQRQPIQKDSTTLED
UniProt Q8TF68: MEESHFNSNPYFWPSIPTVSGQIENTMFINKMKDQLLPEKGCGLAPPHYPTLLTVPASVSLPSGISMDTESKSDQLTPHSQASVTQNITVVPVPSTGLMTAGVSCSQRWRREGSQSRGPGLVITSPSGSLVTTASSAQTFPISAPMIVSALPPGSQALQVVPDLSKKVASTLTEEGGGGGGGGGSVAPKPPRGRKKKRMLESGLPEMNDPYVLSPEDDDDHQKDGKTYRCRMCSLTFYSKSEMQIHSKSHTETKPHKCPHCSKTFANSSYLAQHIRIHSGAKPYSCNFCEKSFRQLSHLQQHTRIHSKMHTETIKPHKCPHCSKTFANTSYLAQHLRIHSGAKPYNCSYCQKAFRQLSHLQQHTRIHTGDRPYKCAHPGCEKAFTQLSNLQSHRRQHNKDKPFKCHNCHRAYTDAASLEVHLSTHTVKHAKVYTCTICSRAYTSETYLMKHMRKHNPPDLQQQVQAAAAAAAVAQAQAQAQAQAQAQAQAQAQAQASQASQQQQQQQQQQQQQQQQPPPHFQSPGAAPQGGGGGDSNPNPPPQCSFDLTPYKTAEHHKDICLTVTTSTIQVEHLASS
UniProt Q96PM9: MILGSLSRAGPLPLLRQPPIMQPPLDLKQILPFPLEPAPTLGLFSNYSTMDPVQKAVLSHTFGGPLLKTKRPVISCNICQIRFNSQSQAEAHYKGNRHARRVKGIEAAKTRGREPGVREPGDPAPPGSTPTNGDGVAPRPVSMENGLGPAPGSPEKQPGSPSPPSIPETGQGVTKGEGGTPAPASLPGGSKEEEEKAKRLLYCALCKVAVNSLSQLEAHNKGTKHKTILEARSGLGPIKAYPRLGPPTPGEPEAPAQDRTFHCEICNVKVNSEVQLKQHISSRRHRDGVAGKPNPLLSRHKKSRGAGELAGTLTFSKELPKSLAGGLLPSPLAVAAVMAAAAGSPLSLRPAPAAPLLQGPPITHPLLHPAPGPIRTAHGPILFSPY
UniProt Q9NRM2: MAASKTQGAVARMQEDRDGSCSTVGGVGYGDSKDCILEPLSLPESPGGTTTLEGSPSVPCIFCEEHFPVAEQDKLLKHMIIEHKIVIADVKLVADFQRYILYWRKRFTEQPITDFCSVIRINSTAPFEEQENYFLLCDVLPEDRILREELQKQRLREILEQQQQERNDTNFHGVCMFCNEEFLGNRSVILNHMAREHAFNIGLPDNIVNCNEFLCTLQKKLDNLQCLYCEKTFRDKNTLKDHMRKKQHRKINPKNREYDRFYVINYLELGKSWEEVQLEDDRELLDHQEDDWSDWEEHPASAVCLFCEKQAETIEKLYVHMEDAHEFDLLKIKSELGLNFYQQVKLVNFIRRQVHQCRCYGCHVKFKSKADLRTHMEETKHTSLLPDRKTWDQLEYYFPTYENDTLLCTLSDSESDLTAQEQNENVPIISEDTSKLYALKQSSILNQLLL
UniProt Q96IQ9: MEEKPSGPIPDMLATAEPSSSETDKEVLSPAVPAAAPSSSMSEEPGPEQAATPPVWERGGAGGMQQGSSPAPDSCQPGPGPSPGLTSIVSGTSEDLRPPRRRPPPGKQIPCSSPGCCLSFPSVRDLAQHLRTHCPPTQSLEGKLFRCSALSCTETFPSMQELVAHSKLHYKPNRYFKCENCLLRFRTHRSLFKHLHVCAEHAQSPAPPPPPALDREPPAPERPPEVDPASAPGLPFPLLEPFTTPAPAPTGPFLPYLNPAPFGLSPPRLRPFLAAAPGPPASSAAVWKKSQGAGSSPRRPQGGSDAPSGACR
UniProt Q8N0Y2: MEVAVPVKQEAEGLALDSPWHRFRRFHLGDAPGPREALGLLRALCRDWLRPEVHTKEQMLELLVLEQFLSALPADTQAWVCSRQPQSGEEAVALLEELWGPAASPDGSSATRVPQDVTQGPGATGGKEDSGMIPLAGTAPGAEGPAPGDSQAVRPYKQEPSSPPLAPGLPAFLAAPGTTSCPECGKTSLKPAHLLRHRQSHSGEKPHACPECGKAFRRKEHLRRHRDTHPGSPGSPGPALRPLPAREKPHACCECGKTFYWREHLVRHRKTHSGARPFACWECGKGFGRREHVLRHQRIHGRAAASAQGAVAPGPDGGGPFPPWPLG
UniProt Q8NAF0: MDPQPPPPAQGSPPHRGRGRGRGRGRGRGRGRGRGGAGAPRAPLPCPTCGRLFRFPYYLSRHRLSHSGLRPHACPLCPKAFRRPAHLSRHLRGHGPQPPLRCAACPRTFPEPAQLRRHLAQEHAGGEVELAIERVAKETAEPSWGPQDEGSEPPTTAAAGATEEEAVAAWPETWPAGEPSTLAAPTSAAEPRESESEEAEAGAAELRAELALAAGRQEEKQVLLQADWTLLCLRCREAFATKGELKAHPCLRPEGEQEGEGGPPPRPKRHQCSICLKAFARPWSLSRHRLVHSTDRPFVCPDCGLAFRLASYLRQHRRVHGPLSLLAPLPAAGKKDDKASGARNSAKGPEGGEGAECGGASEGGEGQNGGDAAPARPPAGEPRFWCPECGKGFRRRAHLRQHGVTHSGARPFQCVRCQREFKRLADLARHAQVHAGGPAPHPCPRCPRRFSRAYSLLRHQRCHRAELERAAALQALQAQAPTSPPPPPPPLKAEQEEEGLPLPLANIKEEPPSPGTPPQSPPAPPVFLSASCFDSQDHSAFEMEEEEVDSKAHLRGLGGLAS
UniProt Q9UK33: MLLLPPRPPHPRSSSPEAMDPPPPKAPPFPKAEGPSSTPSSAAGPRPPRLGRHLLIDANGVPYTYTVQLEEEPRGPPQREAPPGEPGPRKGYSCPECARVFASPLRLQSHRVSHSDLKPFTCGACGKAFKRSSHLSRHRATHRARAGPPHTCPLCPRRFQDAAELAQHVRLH
UniProt A6NFI3: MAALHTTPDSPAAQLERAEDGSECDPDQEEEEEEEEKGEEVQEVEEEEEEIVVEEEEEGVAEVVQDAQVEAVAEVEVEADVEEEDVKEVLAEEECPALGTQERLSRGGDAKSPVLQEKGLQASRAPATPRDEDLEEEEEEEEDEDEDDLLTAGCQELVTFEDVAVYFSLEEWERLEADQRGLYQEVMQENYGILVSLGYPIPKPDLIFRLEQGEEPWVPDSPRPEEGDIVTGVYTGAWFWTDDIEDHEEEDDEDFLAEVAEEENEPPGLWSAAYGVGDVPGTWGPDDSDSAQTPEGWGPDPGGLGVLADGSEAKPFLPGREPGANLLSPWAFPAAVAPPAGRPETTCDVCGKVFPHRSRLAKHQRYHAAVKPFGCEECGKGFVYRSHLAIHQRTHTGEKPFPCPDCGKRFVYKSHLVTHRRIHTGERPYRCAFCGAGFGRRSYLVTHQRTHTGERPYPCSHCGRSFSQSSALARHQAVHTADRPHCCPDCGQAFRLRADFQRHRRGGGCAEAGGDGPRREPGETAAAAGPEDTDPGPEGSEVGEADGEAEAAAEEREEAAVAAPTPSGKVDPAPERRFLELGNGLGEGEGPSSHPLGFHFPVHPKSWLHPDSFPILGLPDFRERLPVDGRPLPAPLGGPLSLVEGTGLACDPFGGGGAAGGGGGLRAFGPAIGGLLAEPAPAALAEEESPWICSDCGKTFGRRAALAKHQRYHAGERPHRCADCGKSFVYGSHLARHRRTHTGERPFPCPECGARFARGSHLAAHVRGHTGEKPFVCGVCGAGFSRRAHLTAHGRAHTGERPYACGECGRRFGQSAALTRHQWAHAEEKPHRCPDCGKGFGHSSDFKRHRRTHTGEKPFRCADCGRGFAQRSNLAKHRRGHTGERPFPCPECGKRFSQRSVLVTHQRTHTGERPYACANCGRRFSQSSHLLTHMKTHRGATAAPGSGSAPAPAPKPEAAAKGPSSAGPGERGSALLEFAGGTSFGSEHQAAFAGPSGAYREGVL
UniProt Q9P0T4: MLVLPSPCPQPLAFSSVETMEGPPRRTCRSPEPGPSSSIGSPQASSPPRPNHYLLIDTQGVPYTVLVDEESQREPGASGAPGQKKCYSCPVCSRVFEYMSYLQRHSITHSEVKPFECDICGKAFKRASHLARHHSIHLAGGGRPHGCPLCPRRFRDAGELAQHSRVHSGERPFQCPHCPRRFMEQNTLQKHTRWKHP
UniProt Q9Y4E5: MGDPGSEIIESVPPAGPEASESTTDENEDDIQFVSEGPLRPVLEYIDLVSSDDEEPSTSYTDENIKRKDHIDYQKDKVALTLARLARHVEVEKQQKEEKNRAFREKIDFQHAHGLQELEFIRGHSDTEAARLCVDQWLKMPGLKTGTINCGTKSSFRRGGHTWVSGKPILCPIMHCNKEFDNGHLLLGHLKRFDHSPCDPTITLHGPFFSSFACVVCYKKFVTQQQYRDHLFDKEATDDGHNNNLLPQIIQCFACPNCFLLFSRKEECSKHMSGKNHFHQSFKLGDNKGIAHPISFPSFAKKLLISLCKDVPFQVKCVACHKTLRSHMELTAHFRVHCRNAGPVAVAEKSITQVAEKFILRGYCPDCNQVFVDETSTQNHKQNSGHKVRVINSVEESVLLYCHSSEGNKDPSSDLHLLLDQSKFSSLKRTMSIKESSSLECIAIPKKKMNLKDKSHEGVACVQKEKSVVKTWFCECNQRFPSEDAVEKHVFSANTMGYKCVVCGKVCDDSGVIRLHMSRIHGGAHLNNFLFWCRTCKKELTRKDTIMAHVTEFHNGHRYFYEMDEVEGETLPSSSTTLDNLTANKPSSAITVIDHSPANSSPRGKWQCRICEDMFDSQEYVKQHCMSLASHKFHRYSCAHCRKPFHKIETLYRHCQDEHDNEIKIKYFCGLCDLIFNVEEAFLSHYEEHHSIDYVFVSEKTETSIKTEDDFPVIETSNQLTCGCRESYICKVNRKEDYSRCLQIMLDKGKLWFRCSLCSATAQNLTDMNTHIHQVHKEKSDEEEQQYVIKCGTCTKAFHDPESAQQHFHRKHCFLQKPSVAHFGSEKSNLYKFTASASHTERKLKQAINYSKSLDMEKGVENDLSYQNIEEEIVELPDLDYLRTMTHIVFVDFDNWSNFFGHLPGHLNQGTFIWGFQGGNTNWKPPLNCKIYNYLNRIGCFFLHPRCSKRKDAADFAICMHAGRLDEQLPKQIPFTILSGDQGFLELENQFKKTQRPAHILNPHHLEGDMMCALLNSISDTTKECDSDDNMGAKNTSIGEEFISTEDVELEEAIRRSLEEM
UniProt Q96KM6: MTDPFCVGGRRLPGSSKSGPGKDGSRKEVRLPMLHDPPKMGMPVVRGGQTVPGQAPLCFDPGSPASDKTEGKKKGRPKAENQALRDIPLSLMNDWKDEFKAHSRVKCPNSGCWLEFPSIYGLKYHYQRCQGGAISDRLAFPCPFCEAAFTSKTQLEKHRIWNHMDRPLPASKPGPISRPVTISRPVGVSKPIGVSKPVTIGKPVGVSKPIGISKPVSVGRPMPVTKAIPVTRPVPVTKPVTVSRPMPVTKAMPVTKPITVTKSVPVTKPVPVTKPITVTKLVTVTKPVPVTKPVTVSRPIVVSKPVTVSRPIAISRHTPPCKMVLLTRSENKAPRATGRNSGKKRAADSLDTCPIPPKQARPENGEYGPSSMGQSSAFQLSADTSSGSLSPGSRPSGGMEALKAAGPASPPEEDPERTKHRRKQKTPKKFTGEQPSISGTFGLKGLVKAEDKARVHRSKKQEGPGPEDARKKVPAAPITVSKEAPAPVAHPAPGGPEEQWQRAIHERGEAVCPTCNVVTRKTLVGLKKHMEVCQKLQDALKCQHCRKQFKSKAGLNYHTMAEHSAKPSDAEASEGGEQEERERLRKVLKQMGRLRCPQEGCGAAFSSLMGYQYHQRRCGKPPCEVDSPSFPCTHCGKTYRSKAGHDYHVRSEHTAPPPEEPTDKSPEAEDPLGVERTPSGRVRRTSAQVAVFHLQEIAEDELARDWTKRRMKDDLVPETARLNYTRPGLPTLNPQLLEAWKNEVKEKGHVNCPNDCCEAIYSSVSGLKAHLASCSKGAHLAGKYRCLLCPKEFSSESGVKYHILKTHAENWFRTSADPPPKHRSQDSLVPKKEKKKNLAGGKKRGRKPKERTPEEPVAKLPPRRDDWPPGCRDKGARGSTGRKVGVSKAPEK

How the values were obtained:
Assay in all cases: log2 fold change, soluble protein after heating vs DMSO (PISA); higher = thermal stabilisation; K562 cells, 10 uM, 30 min; active = over 0.2 and 3.5 SD of the protein, either way, in both replicates (recomputed)
ZNF330 = ZNF330 (UniProt Q9Y3S2)
Procedure, shortened: (§1)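 Quantification of soluble protein used TMTpro 16plex LC-MS/MS, with channel sums equalised. Samples were the supernatant after 21,000xg for 90 min of pooled aliquots from K562 cells (2×10^6 cells/mL) treated with 10 μM compound for 30 min, heated for 3 min over 48°C-58°C, and extracted in PBS with 0.5% NP-40 at 4°C. Values, from duplicates, describe thermal stability against control samples on a log2 fold-change scale.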

ZNF346 = ZNF346 (UniProt Q9UL40)
Procedure, shortened: as §1

ZNF384 = ZNF384 (UniProt Q8TF68)
Procedure, shortened: as §1

ZNF385A = ZNF385A (UniProt Q96PM9)
Procedure, shortened: as §1

ZNF428 = ZNF428 (UniProt M0QXZ5)
Procedure, shortened: as §1

ZNF277 = ZNF277 (UniProt Q9NRM2)
Procedure, shortened: as §1

ZNF414 isoform 2 = ZNF414 isoform 2 (UniProt Q96IQ9)
Procedure, shortened: as §1

ZNF444 = ZNF444 (UniProt Q8N0Y2)
Procedure, shortened: as §1

ZNF511 isoform 1 = ZNF511 isoform 1 (UniProt Q8NB15)
Procedure, shortened: as §1

ZNF579 = ZNF579 (UniProt Q8NAF0)
Procedure, shortened: as §1

ZNF580 = ZNF580 (UniProt Q9UK33)
Procedure, shortened: as §1

ZNF316 = ZNF316 (UniProt A6NFI3)
Procedure, shortened: as §1

ZNF318 = ZNF318 (UniProt Q5VUA4)
Procedure, shortened: as §1

ZNF581 = ZNF581 (UniProt Q9P0T4)
Procedure, shortened: as §1

ZNF451 = ZNF451 (UniProt Q9Y4E5)
Procedure, shortened: as §1

ZNF512 = ZNF512 (UniProt Q96ME7)
Procedure, shortened: as §1

ZNF512B = ZNF512B (UniProt Q96KM6)
Procedure, shortened: as §1

ZNF280D = ZNF280D (UniProt Q6N043)
Procedure, shortened: as §1

Measured: log2 fold change

Cc1cc(Nc2cc(N3CCN(C)CC3)nc(Sc3ccc(NC(=O)C4CC4)cc3)n2)n[nH]1 [tozasertib]
inactive: ZNF330 = 0.015 | ZNF346 = 0.017 | ZNF384 = 0.3 | ZNF385A -0.022 | ZNF428 = -0.018

COc1cc2nc(-c3cc(F)ccc3O)nc(N[C@@H]3CNC[C@H]3C(C)(C)O)c2cc1OC
inactive: ZNF277 = 0.268 | ZNF330 = 0.014 | ZNF346 = 0.04 | ZNF385A -0.043 | ZNF414 isoform 2 = 0.01 | ZNF428 = -0.061 | ZNF444 = 0.01 | ZNF511 isoform 1 = -0.013 | ZNF579 = 0.042 | ZNF580 = 0.093

CN(CCOc1ccc(C[C@@H]2SC(=O)NC2=O)cc1)c1ccccn1 (racemic) [rosiglitazone]
inactive: ZNF316 = -0.044 | ZNF330 = 0.002 | ZNF346 = 0.008 | ZNF384 = -0.034 | ZNF385A 0.142 | ZNF414 isoform 2 = 0.059 | ZNF428 = 0.019

NC(=O)Nc1cc(-c2cccc(F)c2)sc1C(=O)N[C@H]1CCCNC1
inactive: ZNF316 = -0.262 | ZNF330 = -0.038 | ZNF346 = -0.052 | ZNF384 = 0.265 | ZNF385A -0.08 | ZNF414 isoform 2 = 0.096 | ZNF428 = 0.112 | ZNF444 = -0.007 | ZNF511 isoform 1 = 0.007 | ZNF579 = -0.008 | ZNF580 = 0.123

C[C@H](Nc1ncnc2nc[nH]c12)c1cc2cccc(Cl)c2c(=O)n1-c1ccccc1 [duvelisib]
inactive: ZNF318 = 0.097 | ZNF330 = -0.025 | ZNF346 = -0.036 | ZNF385A -0.071 | ZNF428 = 0.104 | ZNF581 = -0.045

Cn1cncc1[C@@](N)(c1ccc(Cl)cc1)c1ccc2c(c1)c(-c1cccc(Cl)c1)cc(=O)n2C [tipifarnib]
inactive: ZNF277 = 0.044 | ZNF330 = -0.027 | ZNF346 = 0.013 | ZNF385A 0.07 | ZNF414 isoform 2 = -0.081 | ZNF428 = 0.014 | ZNF444 = 0.119 | ZNF511 isoform 1 = 0.062 | ZNF579 = 0 | ZNF580 = -0.204

Cc1ccc(NC(=O)c2cccc(C(C)(C)C#N)c2)cc1Nc1ccc2ncn(C)c(=O)c2c1
inactive: ZNF316 = 0.143 | ZNF330 = -0.014 | ZNF346 = 0.017 | ZNF384 = -0.203 | ZNF385A 0.125 | ZNF414 isoform 2 = -0.049 | ZNF428 = 0.077 | ZNF444 = -0.026 | ZNF511 isoform 1 = -0.026 | ZNF579 = 0.043 | ZNF580 = -0.174

CCCCN(Cc1ccc(C(=O)NO)cc1)C(=O)Nc1ccccc1 [Nexturastat A]
inactive: ZNF277 = 0.276 | ZNF330 = 0.119 | ZNF346 = 0.037 | ZNF385A 0 | ZNF428 = -0.148 | ZNF451 = 0.503 | ZNF511 isoform 1 = -0.074 | ZNF512 = -0.038 | ZNF512B 0.344 | ZNF579 = 0.004

CC1=C(C(=O)Nc2cc3cn[nH]c3cc2F)C(c2ccc(C(F)(F)F)cc2)CC(=O)N1 (configuration not stated)
inactive: ZNF280D 0.12 | ZNF330 = 0.052 | ZNF346 = -0.009 | ZNF385A 0.005 | ZNF428 = 0.014

c1cn2cc(-c3ccc4cn[nH]c4c3)nc(Nc3ccc(N4CCOCC4)cc3)c2n1 [entospletinib]
inactive: ZNF316 = -0.644 | ZNF330 = 0.02 | ZNF346 = 0.068 | ZNF384 = 0.198 | ZNF385A 0.033 | ZNF414 isoform 2 = -0.026 | ZNF428 = -0.022

Sorted by count of non-hydrogen atoms (largest number first): 3 of the compounds above
Cc1ccc(NC(=O)c2cccc(C(C)(C)C#N)c2)cc1Nc1ccc2ncn(C)c(=O)c2c1
inactive: ZNF316 = 0.143 | ZNF330 = -0.014 | ZNF346 = 0.017 | ZNF384 = -0.203 | ZNF385A 0.125 | ZNF414 isoform 2 = -0.049 | ZNF428 = 0.077 | ZNF444 = -0.026 | ZNF511 isoform 1 = -0.026 | ZNF579 = 0.043 | ZNF580 = -0.174

CC1=C(C(=O)Nc2cc3cn[nH]c3cc2F)C(c2ccc(C(F)(F)F)cc2)CC(=O)N1 (configuration not stated)
inactive: ZNF280D 0.12 | ZNF330 = 0.052 | ZNF346 = -0.009 | ZNF385A 0.005 | ZNF428 = 0.014

CCCCN(Cc1ccc(C(=O)NO)cc1)C(=O)Nc1ccccc1 [Nexturastat A]
inactive: ZNF277 = 0.276 | ZNF330 = 0.119 | ZNF346 = 0.037 | ZNF385A 0 | ZNF428 = -0.148 | ZNF451 = 0.503 | ZNF511 isoform 1 = -0.074 | ZNF512 = -0.038 | ZNF512B 0.344 | ZNF579 = 0.004

Additional results follow.

CC[C@H](C)[C@H](NC(=O)[C@H]([C@@H](C)CC)N(C)C(C)=O)C(=O)N[C@H](C(=O)N[C@@H](CC(C)C)C(=O)[C@@]1(C)CO1)[C@@H](C)O [epoxomicin]
inactive: ZNF277 = -0.06 | ZNF330 = 0.089 | ZNF346 = -0.005 | ZNF385A -0.006 | ZNF428 = 0.064 | ZNF451 = 0.079 | ZNF511 isoform 1 = -0.045 | ZNF512 = 0.085 | ZNF512B 0.051 | ZNF579 = -0.024
